# PubChem BioAssay AID1259415 (National Center for Advancing Translational Sciences (NCATS), 2018)
# About 18,000 (4.4%) of roughly 410,000 compounds were called active. Inconclusive results, whose numbers are uncertain, are shown with a selection of clear calls. Cut-off read from the data, not from the text of the source: active = activity change below about -60%; inconclusive = no clear call, values can overlap the other calls; inactive = above about -39%.
# Assay: qHTS Assay for inhibitors of the human cytomegalovirus (HCMV)
# Details: HFF cells, HCMV-luciferase reporter, 72 h; at 57.5 µM; active compounds read low
# Procedure, shortened: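 Two compound doses tested in HFFs infected with HCMV-luciferase, MOI 1 PFU/cell, 72 h at 37C. Lysate luminescence read with OneGlo; data normalized against buffer-only and 10uM Salinomycin inhibitor controls.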
# % is set by controls: 0 for no effect and ±100 for the full control effect.
row,SMILES,"activity change, negative = inhibition"
1,O=C(CNc1ccccc1)N/N=C/c1c(O)ccc2ccccc12,active: -89.1%
2,Cc1nonc1NC(=O)CSc1nnc(-c2ccoc2C)n1-c1cccc(Cl)c1,inactive: -22.5%
3,O=C1CCCN2N=C(SCC(=O)Nc3cccc(C(F)(F)F)c3)SC2=N1,active: -86.5%
4,CC(C)CN(C(=O)CCc1ccccc1Cl)c1c(N)n(Cc2ccccc2)c(=O)[nH]c1=O,inactive: -14.3%
5,Cc1nn(C)cc1NC(=O)CCSc1nc(-c2ccco2)cc(C(F)(F)F)n1,inconclusive: -44.4%
6,CCCCC(C(=O)NC1CCCC1)N(C(=O)c1snc(C(N)=O)c1N)c1ccc(C)cc1 (stereo unspecified),inconclusive: -44.7%
7,O=C(Cn1cnc2c(cnn2-c2ccccc2)c1=O)Nc1ccc(S(=O)(=O)N2CCOCC2)cc1,inconclusive: -49.8%
8,COc1cc(C(=O)NCc2cccnc2)ccc1OCC(=O)Nc1cccc(C(F)(F)F)c1,active: -73.2%
9,CCN(CC)C(=O)c1sc(NC(=O)C(Sc2ccccc2)c2ccccc2)c(C(=O)OC(C)C)c1C (stereo unspecified),inactive: -2.91%
10,O=C(NCC1CCCO1)c1ccc2c(=O)n(CC3CCCO3)c(SCC(=O)N3CCCC3)nc2c1 (stereo unspecified),inconclusive: -44.3%
11,c1csc(CNc2nc(NCC3CCCCC3)c3sccc3n2)c1,inconclusive: -49.3%
12,COCCn1c(-c2cccc([N+](=O)[O-])c2)nc2c1c(=O)[nH]c(=O)n2Cc1ccccc1,active: -87.3%
13,CCN(C(=O)c1c(C)noc1C)c1c(N)n(Cc2ccccc2)c(=O)[nH]c1=O,inconclusive: -42.6%
14,O=C(c1cccc(S(=O)(=O)N2CCN(c3ccccc3)CC2)c1)N1CCN(c2ccccc2O)CC1,inactive: -30.7%
16,O=S(=O)(c1ccccc1)c1nc(-c2ccco2)oc1NCc1cccnc1,inconclusive: -41.8%
17,O=C(c1cccs1)N1CCC(c2ccccc2)C1 (stereo unspecified),inactive: 38.3%
18,Cc1ccc(N=C2C(=O)Nc3ccccc32)c(C)c1,inconclusive: -45.5%
19,CCOc1ccccc1NS(=O)(=O)c1cc2c3c(c1)CC(=O)N3CCC2,inconclusive: -55.6%
20,CNc1ncnc2c1ncn2[C@H]1CN(Cc2ccc(Cl)cc2)C[C@@H](CO)O1,inconclusive: -58.6%
21,Cc1ccc2nc(SCC(=O)c3ccc4c(c3)NC(=O)CO4)[nH]c2c1,inactive: 33.2%

row,SMILES,"activity change, negative = inhibition"
1,CC(NS(=O)(=O)c1ccccc1)C1COc2ccccc2O1 (stereo unspecified),inactive: -15%
2,Cc1ccc(-n2nc(C)c3c(C)c(CCC(=O)Nc4ccc(CN5CCCC5)cc4)c(C)nc32)cc1,inconclusive: -51.9%
3,CCN(CC)S(=O)(=O)c1ccc(N2CCOCC2)c(NC(=O)Cc2ccc(Cl)cc2)c1,inconclusive: -45.7%
4,O=C1CN(C(=O)COC(=O)Cc2ccccc2)c2ccccc2N1,inconclusive: -45.4%
5,CC(C)(C)S(=O)(=O)c1cnc(-c2ccc(Cl)cc2)nc1N,inactive: 68.9%
6,COc1ccccc1C(=O)NC(=S)Nc1ccccc1N1CCCC1,inconclusive: -52.8%
7,S=C(Nc1ccc(Oc2ccccc2)cc1)N1CCN(c2ccccn2)CC1,inconclusive: -58.3%
8,CN(C)c1ccc(/C=C(\C#N)C(=O)c2ccccc2)cc1,active: -62.9%
9,O=S(=O)(NCC(c1ccccc1)N1CCc2ccccc21)c1ccccc1 (stereo unspecified),inactive: 1.26%
10,Cc1ccc(C)c(S(=O)(=O)N2CCN(C(=O)C3CCN(c4ncnc5sc(C)c(C)c45)CC3)CC2)c1,active: -67.3%
11,CCc1ccccc1NC(=O)CN1C(=O)c2cccnc2Sc2ccccc21,inactive: 5.89%
12,CCC(CC)C(=O)Nc1cccc(C(=O)Nc2ccc(S(N)(=O)=O)cc2)c1,inactive: -29.1%
13,COC(=O)c1cc(NS(=O)(=O)c2ccc(N3CCOCC3)c(NC(C)=O)c2)cc(C(=O)OC)c1,inactive: -29.2%
14,O=C(CSc1ncnc2c1nnn2Cc1ccc(F)cc1)NCC1CCCO1 (stereo unspecified),inactive: 26%
15,N#CC1=C(c2ccc(-c3ccccc3)cc2)COC1=O,inactive: 13.5%
16,O=C(C1CCCN(S(=O)(=O)c2ccccc2)C1)N1CCCCCC1 (stereo unspecified),inconclusive: -50.7%
17,CCOC(=O)c1ccc(NC(=O)CN2Cc3ccccc3C2=O)cc1,inactive: 4.02%
18,Cc1ccc(C)c(NC(=O)c2cc(-c3ccccc3)nn2-c2ccccc2)c1,inconclusive: -52.2%
19,COc1cc2c(cc1OC)C(=O)NCC(C)(C)O2,active: -102%
20,CC1CCN(S(=O)(=O)c2ccc(NC(=O)CN3CCCCCC3)cc2)CC1,inconclusive: -44.9%

# Rewritten as tab-separated lines: entries from further up
row	SMILES	activity change, negative = inhibition
10	Cc1ccc(C)c(S(=O)(=O)N2CCN(C(=O)C3CCN(c4ncnc5sc(C)c(C)c45)CC3)CC2)c1	active: -67.3%
14	O=C(CSc1ncnc2c1nnn2Cc1ccc(F)cc1)NCC1CCCO1 (stereo unspecified)	inactive: 26%
